Patent US9327013B2, “Activity enhancer for anticancer agent” (TOKYO UNIVERSITY OF SCIENCE FOUNDATION, priority 2011, dated 2016)
Not every detail of the peptide structures is certain; ends, links or a residue may be inferred. Square brackets hold non-standard residues; d marks the D form. Ends that are not written are not given here. Peptide text beside a SMILES is read from it.

Legend:
leukemia cell line U937 = test: Reinforcement of anticancer agent (AraC) against U937 cells on FN, WST method; assay type: cell-based; settings: for synergistic effect with AraC (in words): shape of curve in FIG. 3
A375SM cells = test: Cell adhesion inhibitory activity (A375SM cells on fibronectin-coated plate); assay type: cell-based; settings: peptide 3.125 to 25 μg/ml, FN 0.5 μg/mL coated plate, 1 hour culture; FIG. 1
U937 cells = test: Survival of irradiated SCID mice given U937 cells, peptide combined with AraC; assay type: in vivo

TEATITGLEPGTEYTIYVIAL [FNIII14, reference compound]
synergistic effect with AraC (in words) (leukemia cell line U937): no synergistic effect

CC[C@H](C)[C@H](NC(=O)[C@@H](NC(=O)[C@H](Cc1ccc(O)cc1)NC(=O)[C@@H](NC(=O)[C@@H](NC(=O)[C@H](Cc1ccc(O)cc1)NC(=O)[C@H](CCC(=O)O)NC(=O)[C@@H](NC(=O)CNC(=O)[C@@H]1CCCN1C(=O)[C@H](CCC(=O)O)NC(=O)[C@H](CC(C)C)NC(=O)CNC(=O)[C@@H](NC(=O)[C@@H](NC(=O)[C@@H](NC(=O)[C@H](C)NC(=O)[C@@H](CCC(=O)O)NC(=O)[C@@H](N)[C@@H](C)O)[C@@H](C)O)[C@@H](C)CC)[C@@H](C)O)[C@@H](C)O)[C@@H](C)O)[C@@H](C)CC)C(C)C)C(=O)N[C@@H](C)C(=O)N[C@@H](CC(C)C)C(=O)O [D-Glu-FNIII14, T-[D-Glu]-ATITGLEPGTEYTIYVIAL] (H-T[dE]ATITGLEPGTEYTIYVIAL-OH; N-terminus and C-terminus assumed)
adhesion inhibitory activity (A375SM cells): same level of adhesion inhibitory activity as that of FNIII14
effect on the enhancement of the activity of the anticancer agent relative to FNIII14 (U937 cells): at least two times higher than that of FNIII14
minimum required dose relative to FNIII14 (U937 cells): half of that of FNIII14
Combination Index (CI) with Ara-C (leukemia cell line U937; Ara-C concentration 10^−6M, CI=V3/(V1×V2), CI<1 synergistic): 0.188
effect on the reduction in viable U937 cells in the presence of AraC (leukemia cell line U937; peptide 100 μg/mL, AraC 0 to 10^−5M, 24 hours, 20% human serum, FIG. 3): superior effect on the reduction in the viable U937 cells
inhibitory effect by IC50 of AraC in the presence of peptide, relative to absence of peptide (leukemia cell line U937; peptide 100 μg/mL, U937 on FN): about 100 times
inhibitory effect by IC50 of AraC in the presence of peptide, relative to presence of FNIII14 (leukemia cell line U937; peptide 100 μg/mL, U937 on FN): about 10 times
synergistic effect with AraC (in words) (leukemia cell line U937): highly synergistic effect
